Consider one substance from article PMC6805999, “Molecular Mechanism of SR Protein Kinase 1 Inhibition by the Herpes Virus Protein ICP27” (mBio, 2019).

By UniProt entry, the sequences of proteins in these tests, tags left out. Residues count along the entry.
UniProt Q07955: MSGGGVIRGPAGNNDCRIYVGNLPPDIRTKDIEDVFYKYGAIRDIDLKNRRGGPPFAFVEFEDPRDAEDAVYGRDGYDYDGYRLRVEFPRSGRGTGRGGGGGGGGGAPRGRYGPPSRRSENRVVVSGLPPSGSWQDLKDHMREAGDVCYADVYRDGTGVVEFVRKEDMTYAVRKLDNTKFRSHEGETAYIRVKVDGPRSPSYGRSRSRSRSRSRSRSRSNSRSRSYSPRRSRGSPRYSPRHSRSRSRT
UniProt P10238, residues 103-155: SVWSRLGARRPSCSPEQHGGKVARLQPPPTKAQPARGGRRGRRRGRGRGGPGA

For the experiment, the target named is full-length SRSF1 (UniProt Q07955). The experiment is described as follows: NMR titration; IDIS-HSQC NMR of a 1:1 mixture of 50 μM 13C,15N-labelled ICP27 103-155 and 50 μM 15N-labelled SRSF1, then unlabelled GB1-SRPK1 added to 25 μM and to 50 μM; both purified.

Results are given in words; binding and its absence hold for the method and conditions named.

For the substance “recombinant isotope-labelled ICP27 103-155 (expressed as GST-ICP27 103-155) (from UniProt P10238 103-155) (domain or fragment)”, the binding result is “no binding (tested: 50 μM each)”.
